Assay results: patent US20090068679A1
These are yes or no findings as the source states them, for the method shown. Some results given as binding are weak or reduced against the parent protein; the word gives no strength.

Biological target: recombinant human VEGF R1 (Flt-1)/Fc chimera (R&D Systems, Catalog No. 321-FL/CF) (human) (UniProt P17948)
Assay: ELISA: PlGF 1 ug/ml on plate-captured Flt-1/Fc; complex shown by the comparison antibodies

- binding: binds
B1: recombinant human PlGF (R&D Systems, Catalog No. 264-PG/CF) (ligand, UniProt P49763-2 21-149, looked up)
chain: AVPPQQWALSAGNGSSEVEVVPFQEVWGRSYCRALERLVDVVSEYPSEVEHMFSPSCVSLLRCTGCCGDENLHCVPVETANVTMQLLKIRSGDRPSYVELTFSQHVRCECRPLREKMKPERCGDAVPRR
